# In article PMC3746198:
# Sequences of proteins named here, by UniProt entry; tags and fusion partners are left off. A change or cut given only in a name is not applied to a line headed by its entry.
# UniProt P48432: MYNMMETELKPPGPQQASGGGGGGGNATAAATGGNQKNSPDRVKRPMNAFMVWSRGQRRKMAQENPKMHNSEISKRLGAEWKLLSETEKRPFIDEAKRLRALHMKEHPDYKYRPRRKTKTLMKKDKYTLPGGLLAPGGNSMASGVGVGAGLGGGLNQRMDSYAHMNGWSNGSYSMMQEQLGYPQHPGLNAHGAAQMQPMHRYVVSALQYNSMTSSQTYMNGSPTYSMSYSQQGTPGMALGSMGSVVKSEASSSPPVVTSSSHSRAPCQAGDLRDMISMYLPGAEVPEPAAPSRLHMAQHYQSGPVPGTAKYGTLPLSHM
# These are yes or no findings as the source states them, for the method shown. In cells and extracts the contact can be indirect. For some of these results: Binding calls can cover weak binding; strength is not graded here. For some of these results: Where a sequence is shown, tags or fusion partners need not be part of it.
# What was measured:
# Experiment in all cases: co-IP; E14/T cells co-transfected with (HA)3-Nanog or mutants and (Flag)3Sox2 or mutants; nuclear extract (treated with benzonase); HA antibody 4°C 3 h, Protein G; immunoblot with anti-FLAG
# (HA)3-NanogΔHD = (HA)3-NanogΔHD (UniProt Q80Z64)
# (HA)3Nanog = target: T1, (HA)3Nanog (UniProt Q80Z64)
# T1 sequence: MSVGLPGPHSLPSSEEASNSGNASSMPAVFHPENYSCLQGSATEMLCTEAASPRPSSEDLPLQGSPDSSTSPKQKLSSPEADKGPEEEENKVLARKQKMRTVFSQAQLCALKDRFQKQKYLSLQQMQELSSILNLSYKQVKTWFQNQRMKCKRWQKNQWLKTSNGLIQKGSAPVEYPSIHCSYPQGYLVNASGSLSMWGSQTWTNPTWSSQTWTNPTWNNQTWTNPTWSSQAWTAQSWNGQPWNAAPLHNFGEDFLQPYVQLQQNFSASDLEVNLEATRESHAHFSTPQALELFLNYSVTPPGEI
# (HA)3-NanogΔWR = (HA)3-NanogΔWR (UniProt Q80Z64)
binding ((HA)3-NanogΔHD),binding ((HA)3Nanog),binding ((HA)3-NanogΔWR),Substance
binds,binds,–,(Flag)3-Sox2 ΔHMG (from UniProt P48432)
binds,–,no binding,(Flag)3Sox2 (from UniProt P48432 1-319)
